Laboratory results published in patent US6683211B1, “Phenyl-propargylether derivatives” (priority 2000, dated 2004).
Some of these results come from one statement about several compounds together. Some compounds share one range, which may span the group rather than tell each member.

Assays:
Format in all cases: in vivo
Plasmopara viticola [1] = assay: D-1a) residual-protective action against Plasmopara viticola on vines; conditions: 200 ppm; test D-1a) residual-protective; vine seedlings; evaluated after 6 days
Experimental: (§1) D-1: Action Against Plasmopara viticola on Vines
(§2) a) Residual-protective Action
Vine seedlings are sprayed at the 4- to 5-leaf stage with a spray mixture (0.02% active ingredient) prepared from a wettable powder formulation of the test compound. After 24 hours, the treated plants are infected with a sporangia suspension of the fungus. Fungus infestation is evaluated after incubation for 6 days at 95-100% relative humidity and +20° C.

Plasmopara viticola [2] = assay: D-1b) residual-curative action against Plasmopara viticola on vines; conditions: 200 ppm; test D-1b) residual-curative; vine seedlings; evaluated 6 days after infection
Experimental: as §1
b) Residual-curative Action
Vine seedlings are infected at the 4- to 5-leaf stage with a sporangia suspension of the fungus. After incubation for 24 hours in a humidity chamber at 95-100% relative humidity and +20° C., the infected plants are dried and sprayed with a spray mixture (0.02% active ingredient) prepared from a wettable powder formulation of the test compound. After the spray coating has dried, the treated plants are placed in the humidity chamber again.
Fungus infestation is evaluated 6 days after infection.

Phytophthora [3] = assay: D-2a) residual-protective action against Phytophthora on tomato plants; conditions: 200 ppm; test D-2a) residual-protective, evaluated after 5 days
Experimental: (§3) D-2: Action Against Phytophthora on Tomato Plants
as §2
After a cultivation period of 3 weeks, tomato plants are sprayed with a spray mixture (0.02% active ingredient) prepared from a wettable powder formulation of the test compound. After 48 hours, the treated plants are infected with a sporangia suspension of the fungus. Fungus infestation is evaluated after incubation of the infected plants for 5 days at 90-100% relative humidity and +20° C.

Phytophthora [4] = assay: D-2b) systemic action against Phytophthora on tomato plants; conditions: 200 ppm; test D-2b) systemic (soil watering), evaluated after 4 days
Experimental: as §3
After a cultivation period of 3 weeks, tomato plants are watered with a spray mixture (0.02% active ingredient based on the volume of the soil) prepared from a wettable powder formulation of the test compound. […] After 96 hours, the treated plants are infected with a sporangia suspension of the fungus. Fungus infestation is evaluated after incubation of the infected plants for 4 days at 90-100% relative humidity and +20° C. […] Compounds E1.003, E1.004, E1.009, E1.011, E1.012, E1.014, E1.018, E1.019, E1.020, E1.021, E1.022, E1.023, E1.025, E1.031, E1.032, E1.033, E1.038, E1.040, E1.044, E1.045, E1.049, E1.050, E1.053, E1.055, E1.057, E1.064, E1.085, E1.089, E1.090, E1.091, E1.102, E1.08, E1.110, E1.112, E1.121, E1.125, E1.129, E1.139 and E1.141 at 200 ppm inhibit fungal infestations in both tests D-2a) and D-2b) by 80-100%.

Phytophthora [5] = assay: D-3a) residual-protective action against Phytophthora on potato plants; conditions: 200 ppm; test D-3a) residual-protective; potato plants (Bintje); evaluated after 4 days
Experimental: (§4) D-3: Action Against Phytophthora on Potato Plants
as §2
2-3 week old potato plants (Bintje variety) are sprayed with a spray mixture (0.02% active ingredient) prepared from a wettable powder formulation of the test compound. After 48 hours, the treated plants are infected with a sporangia suspension of the fungus. Fungus infestation is evaluated after incubation of the infected plants for 4 days at 90-100% relative humidity and +20° C.

Phytophthora [6] = assay: D-3b) systemic action against Phytophthora on potato plants; conditions: 200 ppm; test D-3b) systemic (soil watering); potato plants (Bintje); evaluated after 4 days
Experimental: as §4
2-3 week old potato plants (Bintje variety) are watered with a spray mixture (0.02% active ingredient based on the volume of the soil) prepared from a wettable powder formulation of the test compound. […] After 48 hours, the treated plants are infected with a sporangia suspension of the fungus. Fungus infestation is evaluated after incubation of the infected plants for 4 days at 90-100% relative humidity and +20° C. Fungal infestation is effectively controlled with compounds of Tables 1 to 35. Compounds E1.003, E1.004, E1.009, E1.011, E1.012, E1.019, E1.020, E1.021, E1.022, E1.025, E1.031, E1.032, E1.033, E1.038, E1.045, E1.049, E1.050, E1.053, E1.085, E1.089, E1.090, E1.091, E1.102, E1.110, E1.112, E1.121, E1.125, E1.129 at 200 ppm inhibit fungal infestations in both tests D-3a) and D-3b) by 80-100%.

Measured: inhibit fungal infestations

C#CCOc1ccc(CCNC(=O)C(OCC#C)c2cccc(F)c2)cc1OC (centres unmarked) [Compound E1.030]
80-100%: Plasmopara viticola [1] | Plasmopara viticola [2]

C#CCOc1ccc(CCNC(=O)C(OC)c2ccc(F)cc2)cc1OC (centres unmarked) [Compound E1.031]
80-100%: all assays above

C#CCOc1ccc(CCNC(=O)C(OCC)c2ccc(F)cc2)cc1OC (centres unmarked) [Compound E1.032]
80-100%: all assays above

C#CCOc1ccc(CCNC(=O)C(OCC#C)c2cccc(Cl)c2)cc1OC (centres unmarked) [Compound E1.038]
80-100%: all assays above

C#CCOc1ccc(CCNC(=O)C(OCC#C)c2cccc(Br)c2)cc1OC (centres unmarked) [Compound E1.040]
80-100%: Plasmopara viticola [1] | Plasmopara viticola [2] | Phytophthora [3] | Phytophthora [4]

C#CCOc1ccc(CCNC(=O)C(OCC#C)c2cccc(C)c2)cc1OC (centres unmarked) [Compound E1.042]
80-100%: Plasmopara viticola [1] | Plasmopara viticola [2]

C#CCOc1ccc(CCNC(=O)C(OC)c2ccc(C)cc2)cc1OC (centres unmarked) [Compound E1.043]
80-100%: Plasmopara viticola [1] | Plasmopara viticola [2]

C#CCOc1ccc(CCNC(=O)C(OCC)c2ccc(C)cc2)cc1OC (centres unmarked) [Compound E1.044]
80-100%: Plasmopara viticola [1] | Plasmopara viticola [2] | Phytophthora [3] | Phytophthora [4]

C#CCOc1ccc(CCNC(=O)C(OCC)c2ccc(C(F)(F)F)cc2)cc1OC (centres unmarked) [Compound E1.049]
80-100%: all assays above

C#CCOc1ccc(CCNC(=O)C(OCC#C)c2ccc(C=C)cc2)cc1OC (centres unmarked) [Compound E1.055]
80-100%: Plasmopara viticola [1] | Plasmopara viticola [2] | Phytophthora [3] | Phytophthora [4]

C#CCOc1ccc(CCNC(=O)C(OCC#C)c2ccc(C#C)cc2)cc1OC (centres unmarked) [Compound E1.057]
80-100%: Plasmopara viticola [1] | Plasmopara viticola [2] | Phytophthora [3] | Phytophthora [4]

C#CCOc1ccc(CCNC(=O)C(OCC#C)c2ccc(CCC)cc2)cc1OC (centres unmarked) [Compound E1.064]
80-100%: Plasmopara viticola [1] | Plasmopara viticola [2] | Phytophthora [3] | Phytophthora [4]

C#CCOc1ccc(CCNC(=O)C(OCC#C)c2ccc(C(C)C)cc2)cc1OC (centres unmarked) [Compound E1.066]
80-100%: Plasmopara viticola [1] | Plasmopara viticola [2]

C#CCOc1ccc(CCNC(=O)C(OCC)c2ccc(F)c(Cl)c2)cc1OC (centres unmarked) [Compound E1.089]
80-100%: all assays above

C#CCOc1ccc(CCNC(=O)C(OCC#C)c2ccc(Cl)c(C(F)(F)F)c2)cc1OC (centres unmarked) [Compound E1.108]
80-100%: Plasmopara viticola [1] | Plasmopara viticola [2] | Phytophthora [3] | Phytophthora [4]

C#CCOc1ccc(CCNC(=O)C(OCC#C)c2ccc(Br)c(Br)c2)cc1OC (centres unmarked) [Compound E1.110]
80-100%: all assays above

C#CCOc1ccc(CCNC(=O)C(OCC#C)c2ccc(C)c(C)c2)cc1OC (centres unmarked) [Compound E1.112]
80-100%: all assays above
